According to PMC7221574 (Molecules, 2020):

Tests used:
Assay type in all cases: cell-based
[1] = system: MCF-7; assay: In vitro antiproliferative activity, SRB assay, MCF-7; conditions: Homo sapiens, MCF7, 72 h, human breast adenocarcinoma, mean ± SD
Procedure: (§1) The A549 cell line was purchased from the European Collection of Authenticated Cell Cultures (ECACC, Salisbury, UK). The MCF-7, LoVo and LoVo/DX cell lines was purchased from American Type Culture Collection (ATCC, Manassas, VA, USA). All the cell lines are maintained in the Institute of Immunology and Experimental Therapy (IIET), Wroclaw, Poland.
(§2) Human lung adenocarcinoma cell line was cultured in a mixture of OptiMEM and RPMI 1640 (1:1) medium (IIET, Wroclaw, Poland), supplemented with 5% fetal bovine serum HyClone (GE Healthcare, USA) and 2 mM L-glutamine (Sigma-Aldrich, Germany). Human breast adenocarcinoma cell line was cultured in a mixture of Eagle medium (IIET, Wroclaw, Poland), supplemented with 10% fetal bovine serum, 2 mM L-glutamine, 8 μg/mL insulin and 1% amino acids (Sigma-Aldrich, Germany). […]
(§3) After 72 h of incubation with the tested compounds, the cells were fixed in situ by gently adding of 50 μL per well of cold 50% trichloroacetic acid TCA (POCh, Poland) and were incubated at room temperature for one hour. […] Absorbance of each solution was read from a Synergy H4 Hybrid Multi-Mode Microplate Reader (BioTek Instruments, USA) at the 540 nm wavelength.

[2] = system: BALB/3T3; assay: In vitro antiproliferative activity, SRB assay, normal fibroblasts BALB/3T3; conditions: Mus musculus, normal murine embryonic fibroblasts, 72 h, mean ± SD
Procedure: as §1, §2, §3

[3] = system: LoVo; assay: In vitro antiproliferative activity, SRB assay, LoVo; conditions: Homo sapiens, 72 h, human colon adenocarcinoma, mean ± SD
Procedure: as §1, §2, §3

[4] = system: A549; assay: In vitro antiproliferative activity, SRB assay, A549; conditions: Homo sapiens, A549, 72 h, human lung adenocarcinoma, mean ± SD
Procedure: as §1, §2, §3

COc1cc2c(c(OC)c1OC)-c1ccc(OC)c(=O)cc1[C@@H](NC(C)=O)CC2 [Compound 1, colchicine, reference compound]
IC50 [1]: 22.6 ± 1.3 nM
IC50 [2]: 115 ± 36.8 nM
IC50 [3]: 17.5 ± 2.5 nM
IC50 [4]: 115 ± 23.6 nM
